Measured values as given in US7629359B2, “Use of piperidine derivatives as dermo-decontracting agents” (L'Oreal, priority 2004, dated 2009).

Test system: dermis equivalent model consisting of a matrix of collagen seeded with normal human fibroblasts
Test: Dermo-decontracting effect on dermis equivalent model (spontaneous contraction of collagen gel)
Type: cell-based
Conditions: dermis equivalent test presented in Example 1

C(=C\c1ccccc1)/CN1CCN(C(c2ccccc2)c2ccccc2)CC1 [cinnarizine]
activity as dermo-decontracting agent in the test of Example 1: not active
